Laboratory results published in PMC11148194.
Results are given in words; binding and its absence hold for the method and conditions named. Binding seen in cells or lysates may run through a third protein. Some results given as binding are weak or reduced against the parent protein; the word gives no strength. Where a sequence is shown, tags or fusion partners need not be part of it.

T1: Sor1-Pk (S. pombe Sor1, Sororin-like 1, SPAC9E9.05) (S. pombe) (UniProt O14291)
T1 sequence: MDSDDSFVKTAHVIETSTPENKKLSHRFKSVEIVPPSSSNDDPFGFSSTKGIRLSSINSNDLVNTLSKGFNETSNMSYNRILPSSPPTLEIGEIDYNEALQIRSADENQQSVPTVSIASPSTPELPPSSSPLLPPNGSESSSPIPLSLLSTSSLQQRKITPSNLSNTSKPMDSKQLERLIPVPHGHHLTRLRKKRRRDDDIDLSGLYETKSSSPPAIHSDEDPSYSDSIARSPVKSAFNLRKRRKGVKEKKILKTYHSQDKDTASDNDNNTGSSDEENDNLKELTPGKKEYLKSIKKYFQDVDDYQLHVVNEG

T2: Psm3-GFP (S. pombe Psm3, cohesin subunit SMC3) (S. pombe) (UniProt O42649)
T2 sequence: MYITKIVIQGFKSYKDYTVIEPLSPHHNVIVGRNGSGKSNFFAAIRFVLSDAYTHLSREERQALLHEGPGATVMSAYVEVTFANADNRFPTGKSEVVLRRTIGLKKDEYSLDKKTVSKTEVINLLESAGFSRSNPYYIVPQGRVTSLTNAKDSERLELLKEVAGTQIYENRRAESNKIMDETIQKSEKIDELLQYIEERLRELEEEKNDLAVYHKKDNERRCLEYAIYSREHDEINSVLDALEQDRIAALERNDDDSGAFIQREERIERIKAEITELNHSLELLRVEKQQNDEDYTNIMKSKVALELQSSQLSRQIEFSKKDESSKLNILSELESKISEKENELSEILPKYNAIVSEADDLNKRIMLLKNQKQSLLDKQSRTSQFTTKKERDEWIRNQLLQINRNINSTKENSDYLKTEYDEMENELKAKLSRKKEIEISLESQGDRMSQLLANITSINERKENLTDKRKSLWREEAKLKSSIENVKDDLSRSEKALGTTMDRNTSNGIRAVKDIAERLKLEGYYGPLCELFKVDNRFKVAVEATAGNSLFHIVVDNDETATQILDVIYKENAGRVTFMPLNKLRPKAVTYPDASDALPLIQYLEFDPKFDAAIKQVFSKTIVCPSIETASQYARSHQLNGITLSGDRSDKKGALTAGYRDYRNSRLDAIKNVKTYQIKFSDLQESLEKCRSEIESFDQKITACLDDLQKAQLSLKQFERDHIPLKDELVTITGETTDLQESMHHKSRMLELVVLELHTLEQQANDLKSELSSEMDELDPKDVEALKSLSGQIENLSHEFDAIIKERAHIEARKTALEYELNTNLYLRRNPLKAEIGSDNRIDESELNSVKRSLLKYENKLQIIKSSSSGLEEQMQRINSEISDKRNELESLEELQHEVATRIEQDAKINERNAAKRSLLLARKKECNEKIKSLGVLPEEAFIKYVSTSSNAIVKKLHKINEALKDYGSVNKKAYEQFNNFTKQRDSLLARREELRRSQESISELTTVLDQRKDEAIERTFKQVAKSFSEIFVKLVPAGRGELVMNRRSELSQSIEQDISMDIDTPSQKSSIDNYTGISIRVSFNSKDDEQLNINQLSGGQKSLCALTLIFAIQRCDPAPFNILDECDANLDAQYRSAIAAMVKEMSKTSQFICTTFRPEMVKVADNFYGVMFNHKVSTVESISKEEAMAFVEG


Tests used:
[1] = target: T1, Sor1-Pk (S. pombe Sor1, Sororin-like 1, SPAC9E9.05) (S. pombe); test: co-IP; anti-V5 agarose beads hold Sor1-Pk; Pds5-Myc detected by Western blot with anti-Myc; extracts of cycling S. pombe cells; IPP150 buffer (50 mM Tris-Cl pH 8.0, 150 mM NaCl, 10% glycerol, 0.1% NP-40), 1 h at 4 °C
[2] = target: T2, Psm3-GFP (S. pombe Psm3, cohesin subunit SMC3) (S. pombe); test: co-IP; anti-GFP agarose beads hold Psm3-GFP; Sor1-Pk detected by Western blot with anti-V5; extracts of cycling S. pombe cells; IPP150 buffer (50 mM Tris-Cl pH 8.0, 150 mM NaCl, 10% glycerol, 0.1% NP-40), 1 h at 4 °C

binding [1] | binding [2] | Binder
binds |  | Pds5-Myc (S. pombe Pds5) (protein, UniProt Q9HFF5 1-1205) MIKLQFQRNIVPTHDNPLTTSEILKRLRDLLGELTSLSQDTIDRDSVLPVARSLVNNNLLHHKDKGIRSYTLCCIVELLRLCAPDAPFTLSQLEDIFQVILKILSGLMNQESTYYPQIYEILESLSNVKSAVLIVDLPNAEEFLVNIFRLFFDLARKGTTKNVEFYMLDIINQLINEINTIPAAALNILFAQLISGKGVRQTIGSSDSTNHGPAFQLARNIFHDSADRLQRYVCQYFSDIIFDSRDSLSDSMTTPEFIFSHNLVLQLWKYAPTTLLNIIPQFENELQAEQTSVRLVAIETVGLMLQDNAIWSDYPRVWSAFCGRLNDKSVACRIKCIEVASNALQNSLATSEIIENVVQMLQSKLADTDEKVRVATLKTIEQLTFETFKMQFSVQALKLMGDRLRDRKLNVRLQAIRTLSQIYNRAYQDLIDGVEYSIQMFSWIPSSLLEVFYVNDETTNAAVEICMAELVLQYLSSDTQTRLNRLFLSIKYFSEKAMRVFILLLQRQVKYSELLNYYIECCKNYNGGVMDNDEESITNKLKKVIDIISSKSSNPTLTEATFRKFAELNDRQSYKMLLQTFSIKSEYQVVLKSIKYLFKRVSETLSTASLECFRIFVYRSALFAFNKSNVHEIIQLLNEPVKYHNFLKPSEALLQHLPLIHPNIYGEVVIEVENIIVSSGIESDPKVIKALSQFSKRKKNFSIQTTTAEILRKLCLHGTQEQAKQAATIIAITETKEFKLDMITNIVENLEYNGGLPVRLMTLGQLFLYTLEEVEKVADQVTEFLVKKVIQRFPEKYDDTHNDEEWCTYEKLDNLTMCKVLAIRVLVNRLRAAAGGTEALNIGAPIIKLLKVLLMADGELSPFKNTPKISRAYLRLTASKYFLKLCSIPFYAEHIDFSSYVQISLLCQDENFDVRNLFLTKLQKQLQLKKLPISYYPLLFLTAVDPEEEIKTKASIWIRSQVAFFQKTHDFTMEYVATYLIHLLSHHPDISSIESENSLDFIAYIRFYVDTVVNSENVPIVFHLMQRIKQSYDVIEDGNNYIYVLSDMAQKILQVKSQNFGWSLTTYPKQIKLPYEILRPIPSIDEKKRIFNKIFITPKMESQIEHAIRTPVSSFAKQTTNKHANLKQKKTHSSKSDKKSSRRRKNEKRRKLNEQNPNIRNVPERSSSRFQGIRINYSEAPSSSEEISEEEEEISEEDFDEIEDL
 | binds | Sor1-Pk (S. pombe Sor1, Sororin-like 1, SPAC9E9.05) (protein, UniProt O14291 1-313) MDSDDSFVKTAHVIETSTPENKKLSHRFKSVEIVPPSSSNDDPFGFSSTKGIRLSSINSNDLVNTLSKGFNETSNMSYNRILPSSPPTLEIGEIDYNEALQIRSADENQQSVPTVSIASPSTPELPPSSSPLLPPNGSESSSPIPLSLLSTSSLQQRKITPSNLSNTSKPMDSKQLERLIPVPHGHHLTRLRKKRRRDDDIDLSGLYETKSSSPPAIHSDEDPSYSDSIARSPVKSAFNLRKRRKGVKEKKILKTYHSQDKDTASDNDNNTGSSDEENDNLKELTPGKKEYLKSIKKYFQDVDDYQLHVVNEG
 | binds | Sor1-D303A-Pk (protein, UniProt O14291 1-313) MDSDDSFVKTAHVIETSTPENKKLSHRFKSVEIVPPSSSNDDPFGFSSTKGIRLSSINSNDLVNTLSKGFNETSNMSYNRILPSSPPTLEIGEIDYNEALQIRSADENQQSVPTVSIASPSTPELPPSSSPLLPPNGSESSSPIPLSLLSTSSLQQRKITPSNLSNTSKPMDSKQLERLIPVPHGHHLTRLRKKRRRDDDIDLSGLYETKSSSPPAIHSDEDPSYSDSIARSPVKSAFNLRKRRKGVKEKKILKTYHSQDKDTASDNDNNTGSSDEENDNLKELTPGKKEYLKSIKKYFQDVADYQLHVVNEG
